± gives the standard error. Many entries were measured with a wide error.

The chains are these.
B1: glmS ribozyme (parent)
chain: AUAAAAGCGCCAGAACUACAGAAAUGUAGUUGACGAGGAGGAGGUUUAUCGAAUUUUCGGCGGAUGCCUCCAAA

Variants of B1 are the subject of the first data set. In words: self-cleavage kobs at 40 uM GlcN6P; higher = faster cleavage; RNA array. Particulars: with glucosamine-6-phosphate. The essentials: (§1)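 Glucosamine-6-phosphate, from 40 μM to 10 mM in HEPES/KCl/Mg(OAc)2 buffer, was flowed over sequenced MiSeq chips carrying barcoded ribozyme variants transcribed in situ by E. coli RNA polymerase. A hybridised Cy3 probe tracked the variants at 37 °C as tiles were imaged over ~14 h. kobs, kcat and KM were obtained by fitting normalised per-tile medians to exponential decays and then applying weighted Michaelis–Menten fits across concentrations.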
Regarding U47G U55A C68G C71G, the “self-cleavage kobs at 40 uM GlcN6P” value came to 3.54e-05 ± 2.1e-05 s⁻¹. On to A39G A52G, for which the “self-cleavage kobs at 40 uM GlcN6P” value was 2.35e-05 ± 1.4e-05 s⁻¹.

As to U49G U54A, the “self-cleavage kobs at 40 uM GlcN6P” value was determined as 1.32e-05 ± 1e-05 s⁻¹. Still for that read-out and setting: in the case of A36U G66U C68A it was 3.24e-05 ± 3.1e-05 s⁻¹. Still for that read-out and setting: in the case of C34G U47G C58A C68A it was 2.75e-05 ± 2.6e-05 s⁻¹. On the same count and under the same terms, next, G60A C68G: 2.19e-05 ± 1.5e-05 s⁻¹; G37C C50G: 2.23e-05 ± 1.4e-05 s⁻¹. With U46G C50U C68G, the “self-cleavage kobs at 40 uM GlcN6P” value is 4.29e-05 ± 2.7e-05 s⁻¹. Still for that read-out and setting: in the case of A39U G66U C67A it was 2.17e-05 ± 1.7e-05 s⁻¹. For A36C C50G, the “self-cleavage kobs at 40 uM GlcN6P” value is 4.05e-05 ± 2.3e-05 s⁻¹.

On to A52U U57A C67U, for which the “self-cleavage kobs at 40 uM GlcN6P” value amounted to 3.07e-05 ± 2.5e-05 s⁻¹. Still for that read-out and setting: in the case of C50A C70G it was 1.7e-05 ± 9.8e-06 s⁻¹; in that of A52G C58U C61A, 1.86e-05 ± 1.7e-05 s⁻¹; in that of G51U U69G, 1.63e-05 ± 1.3e-05 s⁻¹. Still for that read-out and setting: in the case of C67A C68U it was 1.79e-05 ± 1e-05 s⁻¹; in that of A39C G66U, 1.4e-05 ± 1.4e-05 s⁻¹; in that of C50G A64U, 3.01e-05 ± 2e-05 s⁻¹.

G35A G38A C71G: the “self-cleavage kobs at 40 uM GlcN6P” value stood at 2.98e-05 ± 2.6e-05 s⁻¹. Still for that read-out and setting: in the case of U47G G59U C61U C68A it was 3e-05 ± 1.9e-05 s⁻¹; in that of C58G C61G, 2.25e-05 ± 2.1e-05 s⁻¹. Same read-out and setting: in the case of G38U G62A C68G it was 3.45e-05 ± 2.5e-05 s⁻¹. Take A52G U69C C70G: the “self-cleavage kobs at 40 uM GlcN6P” value stood at 2.99e-05 ± 2.5e-05 s⁻¹. On the same count and under the same terms, in the case of C58G C67G C68U it was 2.59e-05 ± 1.8e-05 s⁻¹. Same read-out and setting: next, U56A U69G: 1.69e-05 ± 1.4e-05 s⁻¹; C58G C68U: 1.93e-05 ± 1.4e-05 s⁻¹. Same read-out and setting: in the case of G60A C71G it was 0.00245 ± 0.0019 s⁻¹. Consider U56A G66U, for which the “self-cleavage kobs at 40 uM GlcN6P” value was 1.39e-05 ± 8.7e-06 s⁻¹.

In a further data set the parent is B1. The data set can be described thus: self-cleavage kobs at 640 uM GlcN6P; higher = faster cleavage; RNA array. The note with it: with glucosamine-6-phosphate. An outline of the steps: as §1
A6G A12U C16U: the “self-cleavage kobs at 640 uM GlcN6P” value worked out at 3.91e-05 ± 2.6e-05 s⁻¹.

As for C10U A15C U46G C68G, the “self-cleavage kobs at 640 uM GlcN6P” value is 6.98e-05 ± 3.6e-05 s⁻¹. On the same count and under the same terms, in the case of A6G C71U it was 1.85e-05 ± 1.4e-05 s⁻¹.

Turning to C11A A36G C70A, the “self-cleavage kobs at 640 uM GlcN6P” value amounted to 2.78e-05 ± 2.5e-05 s⁻¹. The same measure, in the same setting: next, C10G A12U C34A C58U C67G: 0.0648 ± 0.034 s⁻¹; C11A A12C G32U C50G: 0.000176 ± 0.0001 s⁻¹. Same read-out and setting: in the case of A6U C50A U57G C67U it was 4.55e-05 ± 3.4e-05 s⁻¹; in that of C10U A12U A42G, 2.6e-05 ± 2.1e-05 s⁻¹; in that of G7A C61A, 2.78e-05 ± 2.7e-05 s⁻¹. Still for that read-out and setting: in the case of C10A A53U G60U it was 1.98e-05 ± 1.3e-05 s⁻¹; in that of C8G A36G U69A, 4.98e-05 ± 5e-05 s⁻¹.

Another data set covers variants of B1. The data set can be described thus: self-cleavage kobs at 10000 uM GlcN6P; higher = faster cleavage; RNA array. Particulars: with glucosamine-6-phosphate. An outline of the steps: as §1
Turning to C34G U47G C58A C68A, the “self-cleavage kobs at 10000 uM GlcN6P” value was 3.14e-05 ± 1.8e-05 s⁻¹. Take G60A C68G: the “self-cleavage kobs at 10000 uM GlcN6P” value is 1.51e-05 ± 1.2e-05 s⁻¹. Take G37C C50G: the “self-cleavage kobs at 10000 uM GlcN6P” value was determined as 1.53e-05 ± 1.5e-05 s⁻¹. The same measure, in the same setting: in the case of U46G C50U C68G it was 2.88e-05 ± 2.1e-05 s⁻¹; in that of A36C C50G, 2.48e-05 ± 2e-05 s⁻¹; in that of C50A C70G, 1.16e-05 ± 1.2e-05 s⁻¹.

U47G G59U C61U C68A: the “self-cleavage kobs at 10000 uM GlcN6P” value is 2.23e-05 ± 1.6e-05 s⁻¹.

As to C58G C67G C68U, the “self-cleavage kobs at 10000 uM GlcN6P” value amounted to 1.95e-05 ± 1.8e-05 s⁻¹.

The variants in a further data set derive from B1. The data set can be described thus: self-cleavage kobs at 2500 uM GlcN6P; higher = faster cleavage; RNA array. The note with it: with glucosamine-6-phosphate. The essentials:
as §1
On to A6U C50A U57G C67U, for which the “self-cleavage kobs at 2500 uM GlcN6P” value was 3.55e-05 ± 2.1e-05 s⁻¹.

For C58G C61G, the “self-cleavage kobs at 2500 uM GlcN6P” value came out at 4.06e-05 ± 2.2e-05 s⁻¹.

The record behind these values is the supplement of paper PMC7125110.
